Experimental data: PubChem BioAssay AID602196 (INSERM, 2012)

Test: 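Modifiers of cisplatin sensitivity in A549 cells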
Cells: human A549 lung cancer cells
Reagent: siRNA pair against human genes
Timing: 48 h transfection before cisplatin; time from cisplatin to read-out not stated
Challenge: cisplatin at a dose killing half of control-siRNA cells; exact dose and duration not given
Measurement: 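Shift in cisplatin death relative to control siRNA, from -50 (all cells die) to +50 (no cells die); siRNAs harmful on their own scored 0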
Scale: two-siRNA summed score (-2 to +2): higher = both siRNAs protect from cisplatin killing; -2 means both sensitise; mean protection from cisplatin (shift in death) and protection from cisplatin (shift in death), siRNA C and protection from cisplatin (shift in death), siRNA D: higher = protection from cisplatin killing
Call rule: 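siRNAs harmful alone (LDH or WST-1) get 0; others get +1 for less and -1 for more cisplatin killing; genes are active when the two siRNAs give the same sign, summing to ±2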
Calls: active = both siRNAs shift cisplatin killing the same way; inactive = no consistent shift, or siRNA harmful alone
In all, the deposit lists about 23,000 reagents; below is a part drawn at random. 455 of all reagents (2%) were called active. 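Active includes both protection and sensitisation; some change values fall well beyond the stated -50 to +50 range.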 Entries without a mark were called inactive. The numbers tell different reagents against one gene apart. The record does not give: the amount of reagent.

gene knocked down	reagent no.	two-siRNA summed score (-2 to +2)	mean protection from cisplatin (shift in death) (%)	protection from cisplatin (shift in death), siRNA C (%)	protection from cisplatin (shift in death), siRNA D (%)
NKG7	1	0	-1.8	-12.6	9
LOC441802	1	1	35	36.6	33.3
PCDHB4	1	0	4.9	15.1	-5.4
NCS1	1	0	-4.8	-2.5	-7
LOC107984784	1	0	5.1	11.9	-1.8
REPS1	1	0	8.9	13.6	4.1
MBP	1	0	21	15.9	26.2
PPFIA4	1	0	-3.9	-5.1	-2.8
ZFHX3	1	0	4	4.4	3.7
ZFHX3	2	0	4.2	-4.1	12.6

3 of these entries, reformatted:
| gene knocked down | reagent no. | two-siRNA summed score (-2 to +2) | mean protection from cisplatin (shift in death) (%) | protection from cisplatin (shift in death), siRNA C (%) | protection from cisplatin (shift in death), siRNA D (%) |
| --- | --- | --- | --- | --- | --- |
| MBP | 1 | 0 | 21 | 15.9 | 26.2 |
| PPFIA4 | 1 | 0 | -3.9 | -5.1 | -2.8 |
| ZFHX3 | 1 | 0 | 4 | 4.4 | 3.7 |

Continued:
gene knocked down	reagent no.	two-siRNA summed score (-2 to +2)	mean protection from cisplatin (shift in death) (%)	protection from cisplatin (shift in death), siRNA C (%)	protection from cisplatin (shift in death), siRNA D (%)
KCNQ1	1	0	2.4	-4.4	9.3
LOC401518	1	0	7.9	10.6	5.1
TSGA10IP	1	1	14.8	29.6	0
FCHO2	1	1	15.3	17	13.6
DUOXA1	1	0	9.3	11.6	7
BHLHE40	1	0	14.1	24.3	3.9
TONSL	1	0	12.1	10.7	13.6
OR1L4	1	0	-1.8	-7.3	3.6
ATAD5	1	-1	-4.3	7.5	-16
PRF1	1	0	-2	-11.8	7.8
LOC253264	1	1	15.2	15.7	14.8
LOC392512	1	0	8.2	15.2	1.3
CTDP1	1	0	2.2	6.8	-2.4
